Experimental data reported in article PMC7674640.
Read-outs that look alike come from different tables or passages of the source. Results are given in words; binding and its absence hold for the method and conditions named. In cells and extracts the contact can be indirect. Here binding means that the protein was enriched with, or labelled near, the bait; the list need not be complete. For some assays here: No binding means not detected with the bait. Each block holds one molecule with its values, some of them ahead of it.

Chains of the proteins cited; added tags and fusions are not shown. Residues count along the entry.
UniProt Q9SI75, residues 81-783: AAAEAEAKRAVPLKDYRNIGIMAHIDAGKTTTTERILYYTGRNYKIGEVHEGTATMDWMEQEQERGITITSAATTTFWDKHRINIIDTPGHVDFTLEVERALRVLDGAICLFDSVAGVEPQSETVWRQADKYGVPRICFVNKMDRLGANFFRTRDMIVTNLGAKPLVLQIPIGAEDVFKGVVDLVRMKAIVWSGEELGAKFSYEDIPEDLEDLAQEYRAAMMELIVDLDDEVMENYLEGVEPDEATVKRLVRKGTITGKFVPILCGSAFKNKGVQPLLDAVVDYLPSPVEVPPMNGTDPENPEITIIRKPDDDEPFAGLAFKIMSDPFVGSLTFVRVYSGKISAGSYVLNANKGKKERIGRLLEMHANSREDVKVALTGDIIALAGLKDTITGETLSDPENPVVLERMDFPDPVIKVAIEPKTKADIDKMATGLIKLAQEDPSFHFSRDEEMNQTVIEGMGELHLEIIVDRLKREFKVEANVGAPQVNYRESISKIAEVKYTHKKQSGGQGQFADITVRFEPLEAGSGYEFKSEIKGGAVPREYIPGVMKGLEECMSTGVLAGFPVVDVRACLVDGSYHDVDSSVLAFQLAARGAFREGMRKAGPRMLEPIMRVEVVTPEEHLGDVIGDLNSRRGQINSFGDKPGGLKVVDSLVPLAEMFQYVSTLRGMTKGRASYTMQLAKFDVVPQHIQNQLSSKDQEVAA
UniProt P34791, residues 80-260: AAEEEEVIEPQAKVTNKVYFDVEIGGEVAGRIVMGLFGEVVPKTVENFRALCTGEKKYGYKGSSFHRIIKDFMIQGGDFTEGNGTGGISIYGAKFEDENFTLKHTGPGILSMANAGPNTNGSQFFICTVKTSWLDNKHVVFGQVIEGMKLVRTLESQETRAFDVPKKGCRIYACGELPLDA
UniProt Q9SJE1, residues 50-760: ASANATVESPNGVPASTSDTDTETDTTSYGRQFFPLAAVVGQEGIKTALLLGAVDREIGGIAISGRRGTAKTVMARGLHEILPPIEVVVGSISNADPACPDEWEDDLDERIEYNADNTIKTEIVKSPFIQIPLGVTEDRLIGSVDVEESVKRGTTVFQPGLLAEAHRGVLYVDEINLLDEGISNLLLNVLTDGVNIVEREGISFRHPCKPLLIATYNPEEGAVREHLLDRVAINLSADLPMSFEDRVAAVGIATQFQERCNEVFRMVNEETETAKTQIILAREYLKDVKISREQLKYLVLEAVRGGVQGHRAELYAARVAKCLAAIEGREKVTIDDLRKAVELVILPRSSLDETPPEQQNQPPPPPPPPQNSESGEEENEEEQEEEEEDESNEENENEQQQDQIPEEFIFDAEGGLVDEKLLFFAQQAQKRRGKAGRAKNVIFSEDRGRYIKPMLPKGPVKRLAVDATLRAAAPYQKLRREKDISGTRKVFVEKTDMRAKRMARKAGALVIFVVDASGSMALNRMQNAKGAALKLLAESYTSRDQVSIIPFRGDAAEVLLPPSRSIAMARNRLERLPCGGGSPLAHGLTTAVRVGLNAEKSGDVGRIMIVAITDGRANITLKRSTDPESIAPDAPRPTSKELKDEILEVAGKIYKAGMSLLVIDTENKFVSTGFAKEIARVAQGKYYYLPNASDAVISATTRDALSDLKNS
UniProt P17745, residues 68-476: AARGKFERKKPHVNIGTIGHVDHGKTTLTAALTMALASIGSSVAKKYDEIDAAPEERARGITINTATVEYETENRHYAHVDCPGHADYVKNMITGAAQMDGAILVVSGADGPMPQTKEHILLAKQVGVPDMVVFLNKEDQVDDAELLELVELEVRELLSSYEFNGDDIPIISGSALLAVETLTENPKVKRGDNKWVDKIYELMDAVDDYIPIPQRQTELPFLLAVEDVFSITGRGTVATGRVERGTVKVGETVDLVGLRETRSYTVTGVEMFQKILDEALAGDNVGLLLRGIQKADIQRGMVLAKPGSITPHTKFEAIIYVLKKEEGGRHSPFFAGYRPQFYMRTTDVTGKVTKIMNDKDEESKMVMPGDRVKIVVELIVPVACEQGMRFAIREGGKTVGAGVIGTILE

Assays:
[1] = molecular target: SCO1-GFP (snowy cotyledon 1 fused to GFP) (Arabidopsis thaliana) (UniProt Q9SI75); assay: affinity purification with mass spectrometry; plastidial stress granules (cpSG) from heat/dark-treated (42°C, 30 min) 35S:SCO1-GFP seedlings enriched by differential centrifugation, then purified with anti-GFP rabbit IgG and protein A Dynabeads; lysis buffer 50 mM Tris-HCl pH 7.4, 100 mM potassium acetate, 2 mM magnesium acetate, 0.5% NP-40; hits absent from or enriched (fold change > 2, p < 0.05) against isolates of control seedlings
[2] = molecular target: SCO1-GFP (snowy cotyledon 1 fused to GFP) (Arabidopsis thaliana) (UniProt Q9SI75); assay: as above; remark: listed apart in the source

Molecule: CYP20-3 (At3g62030) (from UniProt P34791 80-260) (enzyme)
binding [1]: binds

Molecule: ALB1 (magnesium chelatase subunit) (from UniProt Q9SJE1 50-760)
binding [1]: binds

B2: polyadenylate-binding protein 8 (protein, UniProt Q9FXA2 1-671)
chain: MAQIQHQGQNANGGVAVPGAAAAEAAAAAAGAAAAAAGAAQQGTTSLYVGDLDATVTDSQLFEAFTQAGQVVSVRVCRDMTTRRSLGYGYVNYATPQDASRALNELNFMALNGRAIRVMYSVRDPSLRKSGVGNIFIKNLDKSIDHKALHETFSAFGPILSCKVAVDPSGQSKGYGFVQYDTDEAAQGAIDKLNGMLLNDKQVYVGPFVHKLQRDPSGEKVKFTNVYVKNLSESLSDEELNKVFGEFGVTTSCVIMRDGEGKSKGFGFVNFENSDDAARAVDALNGKTFDDKEWFVGKAQKKSERETELKQKFEQSLKEAADKSQGSNLYVKNLDESVTDDKLREHFAPFGTITSCKVMRDPSGVSRGSGFVAFSTPEEATRAITEMNGKMIVTKPLYVALAQRKEDRKARLQAQFSQMRPVNMPPAVGPRMQMYPPGGPPMGQQLFYGQGPPAMIPQPGFGYQQQLVPGMRPGGSPMPNFFMPMMQQGQQQQQQQQQQQRPGGGRRGALPQPQQPSPMMQQQMHPRGRMYRYPQRDVNTMPGPTQNMLSVPYDVSSGGGVHHRDSPTSQPVPIVALATRLANAAPEQQRTMLGENLYPLVEQLEPESAAKVTGMLLEMDQTEVLHLLESPEALKAKVTEAMDVLRSVAQQQAGGAADQLASLSLGDNIVP
binding [2]: no binding

More lines, now with the values ahead:

binding [1]: binds
Molecule: translation elongation factor Tu (RABE1b) (from UniProt P17745 68-476)

binding [2]: no binding
B1: ribonuclease TUDOR-1 (protein, UniProt Q8VZG7 1-991)
chain: MATGAENQWLKGRVKAVTSGDCLVITALSHNRAGPPPEKTITFSSLMAPKMARRGGIDEPFAWESKEFLRKLCIGKEVAFKVDYKVEAIAGREFGSVFLGNENLAKLVVKTGWAKVREPGQQNQDKVSPYIKELLQLEELAKQEGYGRWSKVPGAAEASIRNLPPSAIGDSAGFDAMGLLAANKGKPMEGIVEQVRDGSTIRVYLLPEFQFVQVFVAGVQAPSMGRRTTNGSVVETVPDEPNGDVSAESRGPLTTAQRLAASAASSVEVSSDPFATEAKYFTEHRVLSRDVRIVLEGVDKFNNLIGSVHYSDGETVKDLGLELVENGLAKFVEWSANMMEEEAKKKLKAAELQCKKDKVKMWANYVPPATNSKAIHDQNFTGKVVEVVSGDCLIVADDAVPFGSPAAERRVCLSSIRSPKMGNPRREEKPAPYAREAREFLRQRLIGKQVIVQMEYSRKVTQGDGPTTSGAADRFMDFGSVFLPSAAKADSDEVTAPPAAAIAGSQPVGVNIAELVLVRGFGNVVRHRDFEERSNHYDALLAAEARALAGKKGIHSAKESPAMHITDLTVSAAKKAKDFLPSLQRIRRIPAVVEYVLSGHRFKLYIPKITCSIAFSFSGVRCPGRGEPYSEEAISVMRRRIMQRDVEIEVETVDRTGTFLGSMWESRTNVATVLLEAGLAKMQTSFGADRIAEAHLLEQAERSAKNQKLKIWENYVEGEEVSNGNTNTVETRQKETLKVVVTEVLGGGRFYVQSAGDQKIASIQNQLASLSIKDAPIIGSFNPKRGDIVLAQFSLDNSWNRAMIVTAPRAAVQSPDEKFEVFYIDYGNQETVPYSAIRPIDPSVSAAPGLAQLCRLAYIKVPSLEDDFGPEAGEYLHTVTLGSGKEFKAVIEERDTSGGKVKGQGTGTEFVVTLIAVDDEISVNAAMLQEGIARMEKRQKWGHKGKQAALDALEKFQEEARKSRIGIWQYGDIESDDEDTGPARKPAGGRR
